For at least one compound, name, drawing or mass did not settle the structure.
System: MAPK signaling in cells expressing K-Ras(wt), K-Ras(G12C) and K-Ras(G12D)
Assay: Imaging of mCherry-Erk localization in U2OS^A-Tet MAPK R19, R20 and R21 reporter cell lines
Type: cell-based, human
Settings: exposed for 1 hr, compared to DMSO treated cells
Description: MAPK pathway inhibitors were tested for their ability to inhibit nuclear localization of mCherry-tagged ERK in three different cell lines expressing K-Ras wild type, K-Ras G12C or K-Ras G12D. To quantify these images we calculated the ratio of nuclear to cytoplasmic ERK in single cells for four images per sample and plotted the resulting values as a histogram.
Three MAPK reporter cell lines were used to visualize the MAPK pathway in live cells and to analyze dose responses of MAPK inhibitors. U2OS MAPK R19, R20 and R21 multicolor stable cell line expressing mCerulean-CRaf, untagged Mek, mCherry-Erk and Venus-KRas (wt, G12C and G12D, respectively) were plated in glass bottom well 96 well plates. Twenty-four hours after plating cells were treated with doxycycline at 1 μg/ml for 5 h to induce fluorescent reporter expression. Monitoring of cells under the microscope allowed visualization of the response to Ras-MAPK pathway inhibitors. Two inhibitors, Trametinib an inhibitor of Mekl and […], inhibitor of Mek1/2 were used in the assay. […]
For each assay, the images were analyzed using CellProfiler (open source software for image analysis, Kamensty, L. et al., Bioinformatics (2011)) for quantification of the ratio of nuclear versus cytoplasmic Erk fluorescence intensity and the data generated was further processed to determine compound IC50S.

In the case of `CC(=O)Nc1cccc(-n2c(=O)n(C3CC3)c(=O)c3c(Nc4ccc(I)cc4F)n(C)c(=O)c(C)c32)c1` [Trametinib], the mCherry-Erk localization is reported as “increase of mCherry-Erk at the cytoplasm”.

Reference: US20210246455A1, “MULTIPLEX ASSAY” (priority 2017, published 2021)
